# Data taken from the supplement of paper PMC7666118.
# Chains of the proteins cited; added tags and fusions are not shown. Lines headed by an entry give the natural chain unless they say otherwise; changes in a name come on top.
# UniProt P13796: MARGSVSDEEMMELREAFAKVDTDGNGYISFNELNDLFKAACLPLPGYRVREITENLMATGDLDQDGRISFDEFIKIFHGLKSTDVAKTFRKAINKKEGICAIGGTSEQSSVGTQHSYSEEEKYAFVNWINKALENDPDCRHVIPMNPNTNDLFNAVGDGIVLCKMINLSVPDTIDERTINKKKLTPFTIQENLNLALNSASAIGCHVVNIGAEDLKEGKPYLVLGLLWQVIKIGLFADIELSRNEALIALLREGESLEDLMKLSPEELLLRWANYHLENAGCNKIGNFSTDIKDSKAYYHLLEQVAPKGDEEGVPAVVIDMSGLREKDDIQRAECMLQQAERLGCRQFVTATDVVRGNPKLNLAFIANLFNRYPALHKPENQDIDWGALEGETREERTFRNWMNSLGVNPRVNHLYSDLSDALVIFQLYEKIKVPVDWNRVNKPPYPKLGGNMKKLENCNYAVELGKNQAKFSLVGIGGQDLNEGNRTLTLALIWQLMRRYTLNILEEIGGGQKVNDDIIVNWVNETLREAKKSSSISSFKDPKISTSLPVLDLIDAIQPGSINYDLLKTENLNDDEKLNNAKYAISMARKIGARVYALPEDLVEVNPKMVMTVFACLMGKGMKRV
# UniProt Q14005: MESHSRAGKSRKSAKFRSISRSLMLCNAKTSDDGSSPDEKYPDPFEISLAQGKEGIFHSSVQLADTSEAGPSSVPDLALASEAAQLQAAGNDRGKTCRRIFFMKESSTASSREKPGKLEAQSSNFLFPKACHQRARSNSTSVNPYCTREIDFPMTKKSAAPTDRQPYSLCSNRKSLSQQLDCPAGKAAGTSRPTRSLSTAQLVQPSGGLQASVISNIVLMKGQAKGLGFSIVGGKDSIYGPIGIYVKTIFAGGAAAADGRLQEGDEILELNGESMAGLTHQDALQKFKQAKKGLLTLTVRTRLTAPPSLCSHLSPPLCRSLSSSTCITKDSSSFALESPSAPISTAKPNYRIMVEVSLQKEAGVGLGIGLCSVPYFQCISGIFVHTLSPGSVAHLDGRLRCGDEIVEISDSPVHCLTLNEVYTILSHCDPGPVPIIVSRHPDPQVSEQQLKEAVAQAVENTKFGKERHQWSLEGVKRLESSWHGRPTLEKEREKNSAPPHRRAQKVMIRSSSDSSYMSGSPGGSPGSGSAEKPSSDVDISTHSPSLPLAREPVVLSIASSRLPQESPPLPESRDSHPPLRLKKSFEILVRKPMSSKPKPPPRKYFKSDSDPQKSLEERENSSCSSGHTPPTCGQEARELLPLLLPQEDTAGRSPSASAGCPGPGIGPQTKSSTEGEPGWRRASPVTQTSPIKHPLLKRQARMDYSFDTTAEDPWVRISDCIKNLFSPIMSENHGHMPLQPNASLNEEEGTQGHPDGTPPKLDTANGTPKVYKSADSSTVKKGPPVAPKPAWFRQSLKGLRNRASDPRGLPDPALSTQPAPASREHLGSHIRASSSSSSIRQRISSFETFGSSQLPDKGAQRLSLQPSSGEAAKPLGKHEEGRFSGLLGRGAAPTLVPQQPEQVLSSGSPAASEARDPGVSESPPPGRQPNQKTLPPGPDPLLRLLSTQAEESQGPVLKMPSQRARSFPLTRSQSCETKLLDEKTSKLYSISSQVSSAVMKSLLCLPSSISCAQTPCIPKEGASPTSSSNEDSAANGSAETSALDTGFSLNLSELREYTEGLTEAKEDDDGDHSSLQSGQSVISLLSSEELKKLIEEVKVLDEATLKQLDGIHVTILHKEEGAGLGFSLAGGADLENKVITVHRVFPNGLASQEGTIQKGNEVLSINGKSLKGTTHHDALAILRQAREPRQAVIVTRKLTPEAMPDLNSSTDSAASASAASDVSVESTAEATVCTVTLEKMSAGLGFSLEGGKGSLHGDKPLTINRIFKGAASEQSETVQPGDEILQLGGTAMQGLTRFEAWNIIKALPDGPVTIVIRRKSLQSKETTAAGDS
# UniProt Q92506: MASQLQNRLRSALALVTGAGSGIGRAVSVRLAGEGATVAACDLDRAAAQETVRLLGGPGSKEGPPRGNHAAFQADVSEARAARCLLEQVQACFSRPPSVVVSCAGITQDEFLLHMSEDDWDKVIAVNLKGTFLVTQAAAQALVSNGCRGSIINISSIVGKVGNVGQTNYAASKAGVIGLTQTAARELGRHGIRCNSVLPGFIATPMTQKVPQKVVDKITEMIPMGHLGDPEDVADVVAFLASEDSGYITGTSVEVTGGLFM
# UniProt O95239: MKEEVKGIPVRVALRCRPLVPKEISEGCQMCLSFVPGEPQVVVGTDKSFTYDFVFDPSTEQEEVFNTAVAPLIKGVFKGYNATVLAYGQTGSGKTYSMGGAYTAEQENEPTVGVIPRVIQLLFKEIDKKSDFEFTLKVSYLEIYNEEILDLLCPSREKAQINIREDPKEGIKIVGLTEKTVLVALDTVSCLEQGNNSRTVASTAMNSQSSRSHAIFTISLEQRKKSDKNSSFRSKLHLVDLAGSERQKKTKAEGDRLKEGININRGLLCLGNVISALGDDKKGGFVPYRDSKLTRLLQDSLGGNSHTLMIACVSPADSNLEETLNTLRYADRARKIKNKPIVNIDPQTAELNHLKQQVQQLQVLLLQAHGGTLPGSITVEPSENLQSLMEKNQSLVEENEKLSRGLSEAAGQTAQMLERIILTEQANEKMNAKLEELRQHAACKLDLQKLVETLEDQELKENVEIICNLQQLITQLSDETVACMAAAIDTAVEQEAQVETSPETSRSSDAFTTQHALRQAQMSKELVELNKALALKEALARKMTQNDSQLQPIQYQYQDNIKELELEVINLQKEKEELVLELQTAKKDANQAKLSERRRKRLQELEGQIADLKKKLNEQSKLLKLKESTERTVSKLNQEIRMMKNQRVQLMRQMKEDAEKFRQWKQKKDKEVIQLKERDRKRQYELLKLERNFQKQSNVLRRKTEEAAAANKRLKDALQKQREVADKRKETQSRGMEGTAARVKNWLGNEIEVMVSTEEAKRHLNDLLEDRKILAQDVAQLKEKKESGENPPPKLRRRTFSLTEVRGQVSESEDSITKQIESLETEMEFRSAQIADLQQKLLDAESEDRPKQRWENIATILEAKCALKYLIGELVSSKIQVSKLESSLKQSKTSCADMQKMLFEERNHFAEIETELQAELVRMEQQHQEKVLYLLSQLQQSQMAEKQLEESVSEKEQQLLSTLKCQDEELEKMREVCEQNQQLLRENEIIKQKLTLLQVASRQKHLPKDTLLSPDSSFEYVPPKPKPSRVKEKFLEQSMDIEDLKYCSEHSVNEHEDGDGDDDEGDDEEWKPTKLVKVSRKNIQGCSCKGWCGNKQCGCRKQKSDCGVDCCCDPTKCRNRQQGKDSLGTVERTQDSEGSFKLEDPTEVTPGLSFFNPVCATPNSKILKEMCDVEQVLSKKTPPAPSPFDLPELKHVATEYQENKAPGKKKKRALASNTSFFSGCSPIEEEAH
# UniProt A2VDJ0: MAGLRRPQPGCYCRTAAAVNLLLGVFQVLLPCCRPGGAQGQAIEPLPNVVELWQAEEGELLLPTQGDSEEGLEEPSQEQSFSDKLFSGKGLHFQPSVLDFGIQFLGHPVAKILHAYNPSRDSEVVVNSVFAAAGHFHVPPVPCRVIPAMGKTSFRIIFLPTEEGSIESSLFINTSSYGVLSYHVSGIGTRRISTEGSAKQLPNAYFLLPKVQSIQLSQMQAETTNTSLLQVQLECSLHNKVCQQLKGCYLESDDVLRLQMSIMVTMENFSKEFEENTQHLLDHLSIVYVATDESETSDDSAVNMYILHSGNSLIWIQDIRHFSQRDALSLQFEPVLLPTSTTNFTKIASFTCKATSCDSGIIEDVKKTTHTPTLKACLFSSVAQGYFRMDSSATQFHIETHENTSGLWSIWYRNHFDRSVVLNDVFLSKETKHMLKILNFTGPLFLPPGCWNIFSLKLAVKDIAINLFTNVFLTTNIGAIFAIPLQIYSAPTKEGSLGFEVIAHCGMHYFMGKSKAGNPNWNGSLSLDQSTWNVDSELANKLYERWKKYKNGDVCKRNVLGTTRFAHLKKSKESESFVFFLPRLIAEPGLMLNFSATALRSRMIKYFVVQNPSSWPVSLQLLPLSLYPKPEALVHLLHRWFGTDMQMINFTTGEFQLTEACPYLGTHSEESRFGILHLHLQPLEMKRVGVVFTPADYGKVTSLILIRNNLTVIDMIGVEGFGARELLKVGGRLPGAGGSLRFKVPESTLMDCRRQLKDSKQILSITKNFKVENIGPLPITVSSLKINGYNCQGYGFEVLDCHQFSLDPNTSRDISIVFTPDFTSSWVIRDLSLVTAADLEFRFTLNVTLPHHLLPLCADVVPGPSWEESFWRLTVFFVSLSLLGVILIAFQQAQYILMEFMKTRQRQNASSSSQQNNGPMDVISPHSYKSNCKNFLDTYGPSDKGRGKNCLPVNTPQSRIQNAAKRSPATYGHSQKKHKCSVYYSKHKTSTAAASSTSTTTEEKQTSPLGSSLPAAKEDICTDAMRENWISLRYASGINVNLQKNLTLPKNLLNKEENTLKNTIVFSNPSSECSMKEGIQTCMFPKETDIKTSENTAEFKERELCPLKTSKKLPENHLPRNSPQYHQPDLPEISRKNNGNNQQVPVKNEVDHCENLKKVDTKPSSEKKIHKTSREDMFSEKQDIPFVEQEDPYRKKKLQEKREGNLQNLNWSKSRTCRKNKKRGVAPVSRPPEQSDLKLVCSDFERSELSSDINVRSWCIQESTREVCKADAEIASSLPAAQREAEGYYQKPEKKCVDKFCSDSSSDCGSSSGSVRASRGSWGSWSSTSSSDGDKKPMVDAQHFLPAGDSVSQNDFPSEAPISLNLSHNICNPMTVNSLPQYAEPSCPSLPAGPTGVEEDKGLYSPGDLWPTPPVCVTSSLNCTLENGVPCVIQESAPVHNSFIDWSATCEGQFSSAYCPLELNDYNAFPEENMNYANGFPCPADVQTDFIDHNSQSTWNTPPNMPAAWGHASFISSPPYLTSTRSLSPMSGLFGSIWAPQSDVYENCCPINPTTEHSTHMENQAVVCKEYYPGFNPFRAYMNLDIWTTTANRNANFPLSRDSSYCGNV
# UniProt Q14739: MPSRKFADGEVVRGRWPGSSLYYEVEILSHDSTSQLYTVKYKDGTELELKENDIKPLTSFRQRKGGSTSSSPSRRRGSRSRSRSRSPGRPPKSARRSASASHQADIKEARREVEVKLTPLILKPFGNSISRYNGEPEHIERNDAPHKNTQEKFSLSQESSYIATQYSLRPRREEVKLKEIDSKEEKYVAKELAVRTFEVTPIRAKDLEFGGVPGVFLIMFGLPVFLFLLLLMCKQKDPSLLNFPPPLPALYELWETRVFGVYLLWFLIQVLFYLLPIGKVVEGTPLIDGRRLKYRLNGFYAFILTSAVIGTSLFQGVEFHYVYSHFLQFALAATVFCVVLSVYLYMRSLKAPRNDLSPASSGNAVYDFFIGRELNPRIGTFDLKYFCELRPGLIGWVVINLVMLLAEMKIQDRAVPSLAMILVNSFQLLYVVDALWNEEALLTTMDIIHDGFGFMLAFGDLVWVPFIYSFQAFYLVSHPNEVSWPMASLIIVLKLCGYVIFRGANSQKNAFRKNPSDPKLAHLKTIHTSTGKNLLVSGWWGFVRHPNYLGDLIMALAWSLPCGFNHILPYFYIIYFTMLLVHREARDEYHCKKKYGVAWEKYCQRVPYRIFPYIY
# UniProt Q86U28: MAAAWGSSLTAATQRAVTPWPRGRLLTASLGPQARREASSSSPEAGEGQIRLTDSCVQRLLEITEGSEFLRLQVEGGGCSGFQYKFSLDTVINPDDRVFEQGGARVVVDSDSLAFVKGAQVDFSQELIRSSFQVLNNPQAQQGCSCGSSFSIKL
# UniProt Q9UHB6: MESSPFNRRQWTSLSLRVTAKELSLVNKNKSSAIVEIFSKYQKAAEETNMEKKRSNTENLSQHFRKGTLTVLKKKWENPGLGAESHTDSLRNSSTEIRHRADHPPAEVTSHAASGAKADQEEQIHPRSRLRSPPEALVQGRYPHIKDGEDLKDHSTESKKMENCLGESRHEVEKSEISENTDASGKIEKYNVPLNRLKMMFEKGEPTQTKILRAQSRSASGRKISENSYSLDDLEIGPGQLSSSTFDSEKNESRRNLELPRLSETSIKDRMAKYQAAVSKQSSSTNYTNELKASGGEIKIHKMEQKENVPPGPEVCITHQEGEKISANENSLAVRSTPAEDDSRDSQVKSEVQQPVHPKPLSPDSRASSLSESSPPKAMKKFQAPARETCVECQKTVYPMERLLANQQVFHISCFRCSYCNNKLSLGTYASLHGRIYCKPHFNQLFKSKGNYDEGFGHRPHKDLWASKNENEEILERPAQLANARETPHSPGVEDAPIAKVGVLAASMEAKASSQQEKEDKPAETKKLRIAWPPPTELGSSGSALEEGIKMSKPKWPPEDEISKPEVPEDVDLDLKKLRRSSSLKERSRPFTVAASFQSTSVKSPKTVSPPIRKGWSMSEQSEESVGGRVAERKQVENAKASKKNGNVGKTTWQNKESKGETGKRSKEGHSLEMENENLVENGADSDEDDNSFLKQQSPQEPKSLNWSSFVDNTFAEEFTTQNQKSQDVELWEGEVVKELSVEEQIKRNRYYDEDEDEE
# Some of the results follow.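 How the source made its calls: active = dose-dependent thermal stabilisation significant by F-test of dose-response against flat model at 10% FDR; inactive = not significant.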
# Compound: Nc1nc2c(ncn2[C@@H]2O[C@H](COP(=O)(O)OP(=O)(O)OP(=O)(O)O)[C@@H](O)[C@H]2O)c(=O)[nH]1
# Experiment: dose-dependent thermal stabilisation call (2D-TPP, DLPTP, 10% FDR) (binary (1 = stabilised)); higher = stabilised by the compound
# Conditions: system: Jurkat gel-filtered lysate; concentration range 1-500 µM
row,Target,dose-dependent thermal stabilisation call
1,JPT1 (UniProt Q9UK76),inactive: 0
2,KBTBD4 (UniProt Q9NVX7),inactive: 0
3,LGALS3BP (UniProt Q08380),inactive: 0
4,HSP90B1 (UniProt P14625),inactive: 0
5,IMPA2 (UniProt O14732),inactive: 0
6,LIG4 (UniProt P49917),inactive: 0
7,LAMP1 (UniProt P11279),inactive: 0
8,HSPA1A (UniProt P0DMV8),inactive: 0
9,LCP1 (UniProt P13796),inactive: 0
10,KDM4A (UniProt O75164),inactive: 0
11,HNRNPU (UniProt Q00839),active: 1
12,IL16 (UniProt Q14005),inactive: 0
13,LDHA (UniProt P00338),inactive: 0
14,HSD17B8 (UniProt Q92506),inactive: 0
15,KDM3B (UniProt Q7LBC6),inactive: 0
16,LARS (UniProt Q9P2J5),inactive: 0
17,LETM1 (UniProt O95202),inactive: 0
18,KIF4A (UniProt O95239),active: 1
19,LGMN (UniProt Q99538),active: 1
20,KIF3B (UniProt O15066),active: 1
21,KAT8 (UniProt Q9H7Z6),inactive: 0
22,IWS1 (UniProt Q96ST2),inactive: 0
23,KIAA0922 (UniProt A2VDJ0),inactive: 0
24,LBR (UniProt Q14739),inactive: 0
25,IFT43 (UniProt Q96FT9),inactive: 0
26,ISCA2 (UniProt Q86U28),inactive: 0
27,LIMA1 (UniProt Q9UHB6),inactive: 0

# From entry 24 up to 25, as listed above:
row,Target,dose-dependent thermal stabilisation call
24,LBR (UniProt Q14739),inactive: 0
25,IFT43 (UniProt Q96FT9),inactive: 0
